# The list shows a part of the results. These are further read-outs of the screen, such as a control signal, another cell line or another target. No call is given for them. Compounds called inactive in the main read-out are mostly missing here. Potencies come from curve fits of mixed quality, noted in brackets.
# Assay: qHTS Assay for Modulators of Lamin A Splicing
# Settings: HeLa LMNA splicing GFP/RFP minigene ratio, 48 h
# Outline: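 S3 HeLa cells stably expressing lamin A-EGFP splicing minigene plus DsRed2, 600 cells/well, 48 h compound exposure at 37C. Laser-scanning cytometry; analysed as GFP (500-530 nm)/RFP (575-640 nm) total intensity ratio; 0.5% DMSO vehicle.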
# [1] = measured here: GFP splicing reporter channel
# [2] = measured here: RFP viability control channel
Compound,AC50 [1],AC50 [2]
O=C(Nc1ccccc1)Nc1cccc(Cl)c1Cl,"5.62 µM [rising, partial curve]","12.6 µM [rising, partial curve]"
Cc1cc(N2CCC(C(=O)Nc3ccc(F)cc3)CC2)nc(-c2ccccc2)n1,–,"31.6 µM [rising, single point]"
CCCCC(=O)NCc1nc2cccnc2n1Cc1ccc(OC)cc1,–,"0.02 µM [falling, full curve, poor fit]"
Cc1c(C(=O)NCc2ccccc2Cl)sc2nc3n(c(=O)c12)CCCCC3,–,"6.31 µM [rising, full curve]"
Cc1cn2c(=O)cc(COC(=O)c3cccc(NC(=O)c4ccc(C(C)(C)C)cc4)c3)nc2s1,–,"11.2 µM [rising, partial curve]"
Cc1nn2c(=O)cc(COC(=O)c3cccc(NC(=O)CCc4ccccc4)c3)nc2s1,–,"0.0447 µM [falling, full curve]"
COc1ccccc1CNC(=O)c1cccc(-c2ccc(C)c3ccccc23)n1,"11.2 µM [rising, partial curve]","14.1 µM [rising, partial curve]"
c1ccc2sc(SCc3ccc(-c4nnco4)cc3)nc2c1,–,"14.1 µM [rising, single point]"
Cc1ccc(OCC(=O)Nc2cccc(-c3nc4ccccc4s3)c2)cc1,"35.5 µM [falling, single point]","31.6 µM [falling, partial curve, poor fit]"
Cc1ccc(C(=O)c2coc3ccc(O)c(CN4CCN(C)CC4)c23)cc1,–,"35.5 µM [rising, single point]"
Cc1ccc(C)c(N2CCN(C(=O)c3cc4ccccn4n3)CC2)c1,–,"12.6 µM [rising, partial curve, poor fit]"
COC(=O)c1ccc(NC(=O)c2ccccc2CC[N+](=O)[O-])cc1,"11.2 µM [falling, partial curve]","10 µM [falling, partial curve, poor fit]"
CCN(c1cccc(C)c1)S(=O)(=O)c1ccc2c(c1)CCN2C(C)=O,"12.6 µM [rising, single point]","17.8 µM [rising, partial curve]"
Cc1cc(C(=O)CSc2nnc(N)s2)c(C)n1Cc1cccs1,–,"15.8 µM [rising, partial curve]"
O=C(CNS(=O)(=O)c1ccc(Cl)cc1)N/N=C/c1ccco1,"0.158 µM [falling, single point]",–
CC1CN(CCCCOc2ccc3ccccc3c2)CC(C)O1 (centres undefined),"17.8 µM [rising, partial curve, poor fit]","20 µM [rising, single point]"
COCCCn1c(C)nnc1SCC(=O)NCc1ccco1,"14.1 µM [falling, single point]",–
O=C(COc1ccccc1)N1CCN(c2nnc(-c3ccccc3)c3ccccc23)CC1,–,"22.4 µM [rising, single point]"
Cc1sc2ncn(CC(=O)NCC3COc4ccccc4O3)c(=O)c2c1S(=O)(=O)N1CCOCC1 (centres undefined),"0.251 µM [rising, full curve, poor fit]",–

Compound,AC50 [1],AC50 [2]
O=C(COc1ccccc1F)Nc1ccc2oc(-c3cccc(Cl)c3)nc2c1,"10 µM [falling, partial curve]","10 µM [falling, partial curve]"
O=C(CSc1nnc2c(n1)[nH]c1ccccc12)Nc1ccc2c(c1)OCO2,–,"14.1 µM [rising, single point]"
CCOC(=O)C1(C)/C(=N/Nc2cccc(Cl)c2)C(=O)C(=O)N1c1ccccc1 (centres undefined),"2.51 µM [falling, partial curve, poor fit]","1.58 µM [falling, partial curve]"
O=C(CSc1nnc(-c2cnccn2)n1Cc1ccco1)Nc1ccc(Br)cc1,"15.8 µM [rising, partial curve, poor fit]","20 µM [rising, single point]"
COc1ccc2cc(C3(C)NC(=O)N(CC(=O)NCCC4=CCCCC4)C3=O)ccc2c1 (centres undefined),–,"11.2 µM [rising, partial curve]"
Oc1ccccc1/C=N/Nc1cc(N2CCCC2)nc(N2CCCC2)n1,"35.5 µM [falling, single point]","35.5 µM [falling, single point]"
CCOC(=O)c1cc(C(C)C)sc1NC(=O)COC(=O)CCS(=O)(=O)c1ccccc1,"20 µM [rising, partial curve]",–
Cc1nc(NS(=O)(=O)c2ccccc2)sc1C(C)(C)C,–,"12.6 µM [rising, single point]"
CCN(CC)S(=O)(=O)c1cccc(C(=O)Nc2ccc(C#N)cc2)c1,–,"7.08 µM [rising, full curve]"
O=C(Nc1nnc(-c2cccs2)o1)c1ccc(S(=O)(=O)N2CCOCC2)cc1,–,"3.55 µM [rising, partial curve, poor fit]"
COc1cc(CNC(=O)c2ccc3nc(CCc4ccccc4)oc3c2)cc(OC)c1OC,"1.41 µM [falling, full curve, poor fit]","20 µM [falling, partial curve, poor fit]"
CCCCn1nnnc1SCC(=O)Nc1sc2c(c1C#N)CCCC2,–,"14.1 µM [rising, partial curve]"
COC(=O)Nc1ccc(SCC(=O)c2ccccc2)cc1,–,"2.51 µM [falling, partial curve]"
Cc1ccsc1C(=CCCN1CCC[C@@H](C(=O)O)C1)c1sccc1C,"0.001 µM [falling, full curve, poor fit]","25.1 µM [rising, single point]"
CCOc1ccc(N2C(=O)CCC2=O)cc1,"4.47 µM [falling, full curve, poor fit]","4.47 µM [falling, full curve, poor fit]"
O=C(NNc1cccc(Cl)n1)Nc1ccccc1F,–,"0.0224 µM [falling, full curve, poor fit]"
CCCCCCCCC(=O)NC(NC(=S)N1CCOCC1)C(Cl)(Cl)Cl (centres undefined),–,"14.1 µM [rising, single point]"
CCOC(=O)c1[nH]c2ccc(OC)cc2c1NC(=O)C(C)N1CCSCC1 (centres undefined),"3.16 µM [rising, partial curve, poor fit]",–
Fc1ccc(Nc2nc(-c3ccncc3)nc3ccccc23)cc1F,–,"2 µM [rising, full curve]"

# Part of the list above, with tabs:
Compound	AC50 [1]	AC50 [2]
O=C(COc1ccccc1F)Nc1ccc2oc(-c3cccc(Cl)c3)nc2c1	10 µM [falling, partial curve]	10 µM [falling, partial curve]
O=C(CSc1nnc2c(n1)[nH]c1ccccc12)Nc1ccc2c(c1)OCO2	–	14.1 µM [rising, single point]

# Later entries:

Compound,AC50 [1],AC50 [2]
O=C(Cn1cnc([N+](=O)[O-])n1)N/N=C/c1cc(Cl)ccc1O,–,"14.1 µM [rising, single point]"
CN(C)S(=O)(=O)c1ccc(C(=O)OCC(=O)c2ccc3c(c2)NC(=O)CO3)cc1,"14.1 µM [rising, single point]",–
O=C(NC(Cc1c[nH]c2ccccc12)C(=O)Nc1ccc(F)cc1)c1cccs1 (centres undefined),–,"11.2 µM [rising, partial curve]"
O=C(NC12CC3CC(CC(C3)C1)C2)c1ccc(S(=O)(=O)N2CCOCC2)cc1,–,"7.94 µM [rising, partial curve, poor fit]"
CC(=O)Cc1nsc(NC(=O)c2cc(-c3ccccc3Cl)oc2C)n1,"20 µM [rising, single point]","35.5 µM [rising, single point]"
S=C(c1c[nH]c2ccccc12)N1CCOCC1,"12.6 µM [falling, single point]",–
CC(C)OCCCNC(=O)c1cc(Sc2ccc(F)cc2)nc2ccccc12,–,"10 µM [rising, partial curve, poor fit]"
Cc1cc(NCCCn2ccnc2)n2nc(C)c(-c3ccc(Cl)cc3)c2n1,"35.5 µM [falling, single point]","35.5 µM [falling, single point]"
CCOC(=O)/C=C1\Nc2ccccc2OC1=O,–,"11.2 µM [rising, partial curve]"
O=C(CCS(=O)(=O)c1ccccc1)NCCS(=O)(=O)c1ccccc1,"11.2 µM [falling, partial curve, poor fit]",–
O=S(=O)(Nc1ccc(O)c(Sc2nc3ccccc3s2)c1)c1ccc(F)cc1,–,"20 µM [rising, single point]"
CCOC(=O)CNC(=O)Nc1cc(C(=O)NCc2ccccc2OC)ccc1N1CCCC1,–,"28.2 µM [falling, single point]"
CCCCCn1c(=O)[nH]c2cc(C(=O)NCCCN3CCCCC3)ccc2c1=O,–,"6.31 µM [rising, full curve, poor fit]"
Cc1ccc(-c2noc(CCC(=O)NCc3ccc4c(c3)OCO4)n2)cc1,"10 µM [rising, partial curve, poor fit]",–
Cc1ccc(C(CC(=O)c2ccco2)SCCO)cc1 (centres undefined),"12.6 µM [falling, single point]","28.2 µM [falling, single point]"
CCc1cc(C(c2cccc(OC)c2)N2CCOCC2)c(NC(=O)c2ccccc2)s1 (centres undefined),"25.1 µM [falling, single point]","12.6 µM [falling, partial curve]"
CCC(Oc1ccccc1F)C(=O)N1CCC(c2nc3ccccc3s2)CC1 (centres undefined),–,"0.126 µM [falling, full curve, poor fit]"
CCN(C(=O)COC(=O)c1cccc(-n2cnnn2)c1)C1CCCCC1,"35.5 µM [rising, single point]",–
N#Cc1c(-c2ccc(Cl)cc2)c(C#N)c(=O)n(N)c1N,"25.1 µM [falling, single point]",–

# 2 of the compounds above, bar-delimited.
Compound | AC50 [1] | AC50 [2]
CN(C)S(=O)(=O)c1ccc(C(=O)OCC(=O)c2ccc3c(c2)NC(=O)CO3)cc1 | 14.1 µM [rising, single point] | –
O=C(NC(Cc1c[nH]c2ccccc12)C(=O)Nc1ccc(F)cc1)c1cccs1 (centres undefined) | – | 11.2 µM [rising, partial curve]

# Source: PubChem BioAssay AID1487 (National Center for Advancing Translational Sciences (NCATS), 2009)
